Measured data: PubChem BioAssay AID1053208 (Peter MacCallum Cancer Centre, 2014)

- Aim: 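Genes whose silencing cuts survival of bone tumour cells only with doxorubicin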 (primary screen)
- System: mouse osteosarcoma cells, early-passage culture from an engineered mouse model of fibroblastic bone tumour
- Reagent: siRNA pool against mouse genes, 40 nM
- Timing: about 120 h (48 h before drug, then 72 h with drug)
- Challenge: doxorubicin 100 nM for 72 h, roughly 30-40% inhibitory dose
- Read-out: 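Luminescent ATP signal taken as viability with or without 100 nM doxorubicin for 72 h; mean of two wells set against non-targeting siRNA and turned into robust z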
- Direction: viability z-score with doxorubicin: higher = more viable cells under doxorubicin; viability z-score without drug: higher = more viable cells with knock-down alone
- Active means: 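Called active if knock-down leaves viability unchanged without drug (z within -2 to 2) but lowers it with doxorubicin (z at or under -2)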
The whole screen tested about 17,000 reagents; below is a random part of them. Of all reagents, 788 (4.7%) are marked active. 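Calls rest on z-score classes alone; an extra cut-off of viability at most 70% of control was not applied to them.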 Further read-outs or replicates are left out here.

After knock-down of 4921517D22Rik the results were combined z-score class no change with or without drug; viability z-score with doxorubicin 0.9; viability z-score without drug 1.18; inactive.
Prss12 gave combined z-score class no change with or without drug; viability z-score with doxorubicin 0.22; viability z-score without drug 0.34; inactive.
Knock-down of Cwh43 came out at: combined z-score class no change with or without drug; viability z-score with doxorubicin 0.34; viability z-score without drug 1.01; inactive.
Coxfa4 gave combined z-score class no change with or without drug; viability z-score with doxorubicin 0.34; viability z-score without drug -1.85; inactive.
For Zfp30, the values are combined z-score class no change with or without drug; viability z-score with doxorubicin 0.56; viability z-score without drug 0.34; inactive.
Depletion of Armc2 came out at: combined z-score class no change with or without drug; viability z-score with doxorubicin 0.45; viability z-score without drug 1.18; inactive.
Knock-down of Or6c214 resulted in: combined z-score class no change with or without drug; viability z-score with doxorubicin -0.22; viability z-score without drug -0.67; inactive.
For Gpr183 the deposit lists combined z-score class no change with or without drug; viability z-score with doxorubicin -0.22; viability z-score without drug -1.35; inactive.
Slit1 scored combined z-score class high cell count without drug only; viability z-score with doxorubicin 1.12; viability z-score without drug 2.19; inactive.
With knock-down of Slc2a5 the results were combined z-score class no change with or without drug; viability z-score with doxorubicin 0.67; viability z-score without drug 1.69; inactive.
Against Ghdc, the values are combined z-score class no change with or without drug; viability z-score with doxorubicin -1.8; viability z-score without drug -0.84; inactive.
Silencing of Mettl14 resulted in: combined z-score class no change with or without drug; viability z-score with doxorubicin 0.34; viability z-score without drug 0.84; inactive.
For Serpinb1c, the entry reads combined z-score class no change with or without drug; viability z-score with doxorubicin 0.79; viability z-score without drug 0.84; inactive.
For Cxcr4 the deposit lists combined z-score class no change with or without drug; viability z-score with doxorubicin 0.45; viability z-score without drug 0.17; inactive.
After knock-down of Wdr26 the results were combined z-score class no change with or without drug; viability z-score with doxorubicin -0.67; viability z-score without drug 0.17; inactive.
For Nat8f2, the entry reads combined z-score class no change with or without drug; viability z-score with doxorubicin -1.57; viability z-score without drug -1.85; inactive.
After knock-down of Mtnr1b the results were combined z-score class no change with or without drug; viability z-score with doxorubicin 0.22; viability z-score without drug 0.67; inactive.
After knock-down of Otop2, the record shows combined z-score class no change with or without drug; viability z-score with doxorubicin -1.8; viability z-score without drug -1.18; inactive.
Tcaf2 showed combined z-score class no change with or without drug; viability z-score with doxorubicin 1.35; viability z-score without drug -0.51; inactive.
Rpe scored combined z-score class high cell count with doxorubicin only; viability z-score with doxorubicin 2.02; viability z-score without drug 0.17; inactive.
Ciita gave combined z-score class no change with or without drug; viability z-score with doxorubicin -0.22; viability z-score without drug 1.18; inactive.
For Alox12e the deposit lists combined z-score class no change with or without drug; viability z-score with doxorubicin 0.11; viability z-score without drug -0.17; inactive.
Silencing of Pom121 came out at: combined z-score class no change with or without drug; viability z-score with doxorubicin -0.45; viability z-score without drug 0; inactive.
Plekha7 scored combined z-score class no change with or without drug; viability z-score with doxorubicin -0.11; viability z-score without drug 0.17; inactive.
With knock-down of Bkgd, the record shows combined z-score class high cell count without drug only; viability z-score with doxorubicin 0.9; viability z-score without drug 2.36; inactive.
Acp6 scored combined z-score class no change with or without drug; viability z-score with doxorubicin 0.22; viability z-score without drug -1.18; inactive.
For Gpr15, the entry reads combined z-score class no change with or without drug; viability z-score with doxorubicin 0.79; viability z-score without drug 0.51; inactive.
Against Prkaa1 the deposit lists combined z-score class no change with or without drug; viability z-score with doxorubicin -0.11; viability z-score without drug 0.17; inactive.
Chchd2 gave combined z-score class low cell count with doxorubicin only; viability z-score with doxorubicin -2.25; viability z-score without drug -0.67; active.
Knock-down of Sumf1 gave: combined z-score class no change with or without drug; viability z-score with doxorubicin 0.11; viability z-score without drug 0.84; inactive.
For Kdm4c the deposit lists combined z-score class no change with or without drug; viability z-score with doxorubicin -0.67; viability z-score without drug -0.17; inactive.
After knock-down of Sycn, the screen gave combined z-score class no change with or without drug; viability z-score with doxorubicin 0; viability z-score without drug 0.17; inactive.
Against Pkm the deposit lists combined z-score class no change with or without drug; viability z-score with doxorubicin 0.34; viability z-score without drug -0.84; inactive.
Tnfaip2 showed combined z-score class no change with or without drug; viability z-score with doxorubicin -0.22; viability z-score without drug -0.51; inactive.
Against Bltp3b the deposit lists combined z-score class high cell count without drug only; viability z-score with doxorubicin 0.67; viability z-score without drug 2.19; inactive.
After knock-down of Try4, the screen gave combined z-score class no change with or without drug; viability z-score with doxorubicin -0.45; viability z-score without drug 0; inactive.

An excerpt from above, limited to “viability z-score with doxorubicin”.
Gpr183	-0.22
Slit1	1.12
